For one substance, binding results are on record in PMC6906297.

No constants are given. Whether binding was seen depends on the method and setting. In cells and extracts the contact can be indirect. Tags and fused reporters may be left off the sequences shown.

The target in the test is T1, RNF125, tagged, transfected (UniProt Q96EQ8).
T1 sequence: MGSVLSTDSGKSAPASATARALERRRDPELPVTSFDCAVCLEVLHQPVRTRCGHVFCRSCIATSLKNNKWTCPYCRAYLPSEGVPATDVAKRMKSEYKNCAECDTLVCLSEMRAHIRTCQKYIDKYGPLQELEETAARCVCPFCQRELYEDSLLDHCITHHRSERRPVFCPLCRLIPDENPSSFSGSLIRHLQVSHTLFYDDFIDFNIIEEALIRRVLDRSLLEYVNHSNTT
Put plainly: co-IP; HEK293T cells (2 x 10^6) transfected with the indicated plasmids for 24 h; lysate with monoclonal antibody or control mouse IgG and protein G agarose, 4 °C, 2 h; washed with lysis buffer containing 0.5 M NaCl; western blot.

Take “G3BP1 acidic domain (human) (domain or fragment)”: the binding entry is given as “no binding”.
